Earlier results as cited in patent US20040077674A1, “Mappicine analogs, intermediates in the synthesis of mappicine analogs and methods of synthesis of mappicine analogs” (priority 2002, published 2004).
Some entries share one result that the patent states for a list of compounds.

Biological target: T1, RNase H activity of HIV reverse transcriptase (Human immunodeficiency virus type 1 group M subtype B, UniProt P03366)
T1 construct: 2.5 nM of the p51/p66 RT heterodimer in the assay; made in house
Conditions: published reports; cited from earlier work

SMILES: CC(C)(C)c1ccc(C(=O)NN=Cc2c(O)ccc3ccccc23)cc1 [BBNH, N-4-(t-butylbenzoyl)-2-hydroxy-1-naphthaldehyde hydrazone]
- IC50 against HIV-1 reverse transcriptase associated RNase H activity: < 10 µM
